In the supplement of paper PMC3334620:
Whole data set: some 33,000 sequences, median “E-score (-0.5 to 0.5)” near -0.0034, cut for the highest 2% near 0.25. The list shows a part of the results.

What follows are sequences tested against T1, Yap3 (UniProt P38749) (assay: PBM E-score (8-mer binding enrichment) (E-score (-0.5 to 0.5)); higher = stronger / more preferred TF binding). Conditions: protein concentration: 100 nM; construct: GST-full length.
T1 sequence: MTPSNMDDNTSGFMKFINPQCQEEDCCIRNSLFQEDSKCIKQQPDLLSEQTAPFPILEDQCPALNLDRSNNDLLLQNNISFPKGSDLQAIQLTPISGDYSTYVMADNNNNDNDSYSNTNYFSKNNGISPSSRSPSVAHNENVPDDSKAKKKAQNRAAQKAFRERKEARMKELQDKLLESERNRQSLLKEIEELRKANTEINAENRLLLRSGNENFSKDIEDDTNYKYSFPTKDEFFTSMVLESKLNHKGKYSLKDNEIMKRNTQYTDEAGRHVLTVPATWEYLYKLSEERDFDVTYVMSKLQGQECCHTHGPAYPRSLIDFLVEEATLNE
Outline: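 E-scores (a modified Wilcoxon-Mann-Whitney statistic) were assigned by the Universal PBM Analysis Suite to every ungapped eight-base word pooled with its reverse complement. The input came from universal all-10-mer Agilent arrays made double-stranded by primer extension and probed with GST-tagged yeast transcription factors at about 100-200 nM. Fluorescent anti-GST detected bound protein, and masliner normalised the scans.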

| Sequence | PBM E-score |
| --- | --- |
| AGAGAAAG | 0.0709 |
| GCTGAAGA | -0.0428 |
| AACAGCTG | 0.0716 |
| AACTGCAC | 0.0789 |
| TCCCGTAA | 0.0557 |
| CGACGCAG | -0.0783 |
| ATTTGCTC | 0.0509 |
| AGATTGTG | 0.00805 |
| CAATCCGG | 0.0195 |
| ATTGCTCA | -0.00161 |
| CAGCTACC | -0.0788 |
| AGTACACA | 0.201 |
| GCTTTCGA | -0.239 |
| CACCTAAC | -0.07 |
| CTGGTTTA | -0.0783 |
| TCTCGACA | -0.0253 |
| ATTGTTTC | 0.164 |
| CCCGAGGA | -0.113 |
| ATGTCAGG | -0.0733 |
| CAACTGTA | 0.1 |
| CCACTTCG | -0.0637 |
| CGTTCCGC | 0.015 |
| CAAACTAC | 0.0901 |
| AGCTGCCA | -0.023 |
| GCTCCCAC | -0.161 |

Individual results from the list:
For PBM E-score, ATTTGCTC is entered as 0.0509
For PBM E-score, AACTGCAC is entered as 0.0789
For PBM E-score, CAGCTACC is entered as -0.0788
For PBM E-score, ATGTCAGG is entered as -0.0733
For PBM E-score, AACAGCTG is entered as 0.0716

Later entries.

| Sequence | PBM E-score |
| --- | --- |
| ACATAGAA | 0.199 |
| ATTTTCAA | 0.0451 |
| CGCAACAG | -0.095 |
| CCCACTTA | 0.177 |
| CCAGATCG | -0.0854 |
| ATACCTCA | 0.082 |
| ATTACAAC | 0.11 |
| TAAAGGTA | 0.0853 |
| CTTTGATC | -0.0556 |
| CACTAAAG | 0.0782 |
| AAGACAAA | 0.176 |
| CAGCGGAC | -0.0637 |
| ACTTCCTC | -0.106 |
| CAGCCCTG | -0.345 |
| CTGGATTC | -0.0754 |
| ATACATGG | 0.0848 |
| CAATCCCA | -0.138 |
| CGCTTGAA | 0.129 |
| AAACAATC | 0.127 |
| ACGTGAGG | 0.086 |
| ATTAATGA | 0.236 |
| ATCAGAGG | -0.132 |
| CAGAGAAA | 0.278 |
| ATCGTGTC | 0.0422 |
| AATTTACG | 0.239 |

| Sequence | PBM E-score |
| --- | --- |
| ACCAGTCG | -0.204 |
| AAGTCGGC | -0.0562 |
| GAGATGCA | -0.0643 |
| ATGCTGGG | -0.209 |
| GCTCACAC | -0.0287 |
| GGTACGAA | 0.185 |
| AGGCGAAT | -0.0473 |
| CGGTGTTC | 0.0352 |
| AGGAGGAG | -0.244 |
| CTTTGATA | 0.189 |
| CAAAGCAG | 0.0488 |
| CAAGATTA | 0.0683 |
| CTTGTCTC | -0.185 |
| CCATGCTC | -0.233 |
| CTCTGTGC | -0.0788 |
| CAAAAGAA | 0.232 |
| AAAGCCCC | -0.304 |
| AAGGAGCC | -0.201 |
| AAACTTTC | 0.0671 |
| AGGGGCGC | -0.189 |
| ATCTTTAA | 0.145 |
| ACTTATAT | 0.29 |
| ACAGGCGT | -0.237 |
| ACGGTTTA | 0.0171 |
| ACTTATCT | 0.126 |

| Sequence | PBM E-score |
| --- | --- |
| AGAGGCCG | -0.25 |
| ATATAAAA | 0.249 |
| CCGGCACA | -0.159 |
| GCATAACA | 0.157 |
| CGATCGAG | 0.00454 |
| ATTGATGC | 0.0347 |
| GACCTAGC | -0.0583 |
| GCGGTTAA | 0.112 |
| CTCGTGAA | 0.0772 |
| CCATCGGA | -0.201 |
| CACGAGAA | -0.0681 |
| GCTTTTAC | 0.0709 |
| GTGAACGA | 0.0444 |
| ACTCTAGA | 0.0228 |
| ATCTTGGA | -0.131 |
| ATAAACGA | 0.254 |
| CAACGACG | -0.105 |
| AGCGTGTG | 0.0438 |
| ACGAAGTC | -0.11 |
| ACACTCAT | -0.0139 |
| GCGGCCGC | -0.245 |
| CCCTAATC | -0.0713 |
| CATGCCCA | -0.321 |
| ACGAAAGG | 0.0876 |
| CAGACCGG | -0.16 |

| Sequence | PBM E-score |
| --- | --- |
| GCATGGAC | -0.174 |
| CTGAATCA | 0.0612 |
| GTTGTTTA | 0.273 |
| AGGCCAAC | -0.122 |
| CGAGACAC | -0.173 |
| AAAGCCGT | 0.0204 |
| CTGAATGA | 0.12 |
| ATCTTTTA | 0.14 |
| GCACGGGC | -0.26 |
| ACAGGGCC | -0.0904 |
| CGTGGACA | -0.141 |
| AACCGTTG | 0.146 |
| CGCATGCG | 0.00516 |
| ACGGTCGA | -0.0505 |
| AAAACTGC | 0.0136 |
| CTAGGAAC | -0.0179 |
| CTACAGCC | -0.114 |
| ATGATGTG | 0.00874 |
| ATAGGTCC | 0.093 |
| AACGTAAA | 0.2 |
| AACGGCGC | -0.0472 |
| CGTCCGAA | -0.0193 |
| GTCTTTTA | -0.078 |
| CACGGCAG | -0.0231 |
| CGTCAGAC | -0.0199 |

| Sequence | PBM E-score |
| --- | --- |
| AGATTTTC | 0.0151 |
| GACGTCAA | 0.152 |
| ACGCGTCT | -0.0276 |
| AGTGCCCG | -0.127 |
| CTGCGCTC | -0.206 |
| GCAAGTGC | -0.174 |
| ATAGAAGG | -0.147 |
| AGCCCCTG | -0.373 |
| AACCCTAA | 0.0159 |
| CACACTCA | 0.129 |
| CCGACGCC | -0.199 |
| AATAGGGT | -0.0163 |
| CCGACTGA | -0.0346 |
| GCCCTCGC | -0.153 |
| GTGTATAA | 0.045 |
| ATGTGGCG | 0.0147 |
| CCCGGGCC | -0.363 |
| ATACACTA | 0.161 |
| AGCCTCCC | -0.344 |
| TCGAGCGA | 0.0449 |
| CAAGTATG | 0.0554 |
| CAAATCAA | 0.267 |
| CCGCACAC | -0.15 |
| ACACAAAG | 0.173 |
| AATTGTCC | 0.141 |

| Sequence | PBM E-score |
| --- | --- |
| ACAGTACA | 0.102 |
| AGATCGGA | 0.00021 |
| CCTGATTA | 0.18 |
| CGAATCCG | 0.0591 |
| CACGCTCC | -0.28 |
| CAGATATA | 0.0738 |
| CCTTTAAC | 0.079 |
| AATCCTTA | -0.0214 |
| ATTCAACA | 0.0553 |
| GAAGTCAA | 0.0714 |
| AGCCTTTC | -0.157 |
| AAAAGCCT | -0.243 |
| ATAGTCAT | 0.0214 |
| ATTCGCGA | 0.00641 |
| CCCCCCCG | -0.486 |
| ACGGGCCA | -0.0718 |
| CAAAGGCC | -0.159 |
| CGCCGGCA | -0.0536 |
| CCGACCCA | -0.198 |
| CCCCTGCG | -0.303 |
| GACTGTGC | -0.129 |
| ATTGTACA | 0.0579 |
